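Histidine-tRNA ligase, Trypanosoma cruzi CL Brener (UniProt Q4DA54). Enzyme assay of histidyl-tRNA synthetase; the read-out is not stated. Concentration: 30 µM. Higher reads as stronger inhibition (inferred: compounds with an IC50 in retests scored well above the rest). Of about 69,000 compounds tested this way, about 31 (0.045%) reached 50% or more in at least one test.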

The chains behind the UniProt entries cited, without tags or fusion partners. Residues count along the entry.
UniProt Q4DA54, 1-478: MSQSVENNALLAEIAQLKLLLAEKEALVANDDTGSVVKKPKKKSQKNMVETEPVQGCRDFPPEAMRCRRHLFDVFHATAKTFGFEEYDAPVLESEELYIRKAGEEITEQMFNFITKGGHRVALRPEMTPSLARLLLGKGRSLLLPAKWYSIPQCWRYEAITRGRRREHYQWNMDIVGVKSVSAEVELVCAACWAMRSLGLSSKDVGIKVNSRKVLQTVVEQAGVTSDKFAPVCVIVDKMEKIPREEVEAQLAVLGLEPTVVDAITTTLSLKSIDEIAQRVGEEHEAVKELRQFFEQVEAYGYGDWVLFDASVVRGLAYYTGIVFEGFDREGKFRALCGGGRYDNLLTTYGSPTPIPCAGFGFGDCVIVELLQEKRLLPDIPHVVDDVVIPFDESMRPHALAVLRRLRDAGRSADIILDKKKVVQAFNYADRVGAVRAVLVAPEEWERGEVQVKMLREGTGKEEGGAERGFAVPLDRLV

Results are given as percent effect.
How 0% and 100% were set is not recorded. Most values in the screen are low, and negative values occur.
The compounds are a random part of those screened.

| # | SMILES | Percent Effect |
|---|---|---|
| 1 | `CCn1cc2c(n1)CN(Cc1ccc(F)cc1)CC2COCC1CC1` (centres undefined) | 0% |
| 2 | `CSCC(C)(O)CNC(=O)Nc1ccc(C)cc1Br` (centres undefined) | 1.205% |
| 3 | `CN1CSC[C@H]1C(=O)N1CCC(Cc2ccccc2F)CC1` | 7.407% |
| 4 | `O=C(c1nc(=O)[nH][nH]1)N1CCCC(c2cc(C(F)(F)F)[nH]n2)C1` (centres undefined) | -1.149% |
| 5 | `COCCn1cc(NCc2cccc3cn[nH]c23)cn1` | 1.031% |
| 6 | `CN(C)c1ccc(C(=O)N2CCCN(Cc3cnn(C)c3)CC2)nn1` | 2.053% |
| 7 | `Cc1nccn1CCC1CCCCN1Cc1cnc(N(C)C)nc1` (centres undefined) | 4.469% |
| 8 | `CC1CCCN(Cc2ccc(CNC(=O)NCc3ccon3)cc2)C1` (centres undefined) | 4.167% |
| 9 | `CN(C)c1nccc(C2CN(c3ccccc3)CCO2)n1` (centres undefined) | 4.286% |
| 10 | `COc1cnc(C2(O)CCN(C(=O)c3cccnc3)CC2)c(OC)n1` | 2.703% |
| 11 | `COCC(NC(=O)c1cc(NC(C)=O)ccc1Cl)c1ccccn1` (centres undefined) | 10.71% |
| 12 | `CC(NC(=O)c1nc(=O)[nH][nH]1)c1ccc(OCC2CC2)c(F)c1` (centres undefined) | -1.087% |
| 13 | `Cc1nc(C)n(CC2CCCN(Cc3nc(C4CC4)no3)C2)n1` (centres undefined) | 1.504% |
| 14 | `CC1CCCN1Cc1ccccc1-c1nc(C(C)(C)C)cc(=O)[nH]1` (centres undefined) | -1.554% |
| 15 | `CCOCCOC(C)C(=O)Nc1ccc2[nH]c(C)cc2c1` (centres undefined) | -1.053% |
| 16 | `CCOC(=O)CNC(=O)c1scnc1C` | 1.327% |
| 17 | `CC(C)(C)OC(=O)N1CCCN(c2nnc(C3CC3)s2)CC1` | 5.882% |
| 18 | `COCCN1CCO[C@@H]2CN(C(=O)COc3ccc(C)cc3)C[C@@H]2C1` | 2.532% |
| 19 | `COCCNC(=O)c1cc2c(s1)CCN2C(=O)c1ccccc1` | 2.703% |
| 20 | `CN(Cc1ccncc1)C(=O)NC1CCS(=O)(=O)C1` (centres undefined) | 3.125% |
| 21 | `O=C(NCCCO)Nc1cccc(Cl)c1F` | 0.813% |
| 22 | `CC(NC(=O)NCCNc1cccc(F)c1C#N)c1cccs1` (centres undefined) | 4.762% |
| 23 | `CC(NC(=O)NCCCn1cccn1)c1cccnc1` (centres undefined) | 3.734% |
| 24 | `CCOCCCOC(=O)c1ccc2c(c1)[nH]c(=O)n2C` | -5.063% |
| 25 | `c1cncc(OC[C@]23COC[C@H]2CN(C2CCC2)C3)c1` | 9.497% |
| 26 | `O=C(Cc1cnccn1)N1C[C@H]2CC[C@@H]1CN(Cc1cscn1)C2` | 0% |
| 27 | `COCCn1cncc1CN1CCCC(C(=O)Cc2ccccc2)C1` (centres undefined) | -3.03% |
| 28 | `CC(C)c1noc(CCC(=O)Nc2cc(F)ccc2F)n1` | -4.082% |
| 29 | `O=C1COc2ccc(C(=O)N3CCCC(n4ccnc4)C3)cc2N1` (centres undefined) | 7.267% |
| 30 | `CC(=O)NCCNC(=O)CNC1CCCN(c2ccc(C)nn2)C1` (centres undefined) | 0.8596% |
| 31 | `CC(NC(=O)NCCCN1CCCC1=O)c1ccc(Cl)s1` (centres undefined) | 7.563% |
| 32 | `COCC(=O)N1CCCC1c1cccc(C)c1C` (centres undefined) | 4.545% |
| 33 | `COCCCN(Cc1cnc(C2CCCCC2)nc1)C1CCN(C)CC1` | 6.468% |
| 34 | `CN(CC(=O)Nc1cccnc1)CC1CCCN1c1cccnn1` (centres undefined) | 22.41% |
| 35 | `Cc1cc(Cc2ccccc2)cc(C2CCCNC2)n1` (centres undefined) | 8.046% |
| 36 | `Cc1cccc(N2CCN(CCC(=O)NCc3nnc[nH]3)CC2)c1` | 3.784% |
| 37 | `O[C@H]1CN(CCOc2ccc(F)cc2)CC[C@@]12CCCO2` | 5.97% |
| 38 | `CCC1(CO)CCCN(C(=O)c2cc(COc3cccc(F)c3)[nH]n2)C1` (centres undefined) | 13.13% |
| 39 | `O=C(C1CCC1)N1CC[C@@H]2CN(Cc3cccnc3)S(=O)(=O)[C@@H]2CC1` | 11.64% |
| 40 | `Cn1ncnc1CNC(=O)N(CCCO)C1CCc2ccccc21` (centres undefined) | 3.333% |
| 41 | `CCOc1ccc2[nH]c(=O)c(CN3CCCCC3C)cc2c1` (centres undefined) | 2.242% |
| 42 | `Cc1nc(CCNC(=O)Nc2cc(C(F)(F)F)c[nH]c2=O)cs1` | 0.4464% |
| 43 | `Cc1nn(S(=O)(=O)c2ccc(Cl)cc2)c(C)c1C` | 4.386% |
| 44 | `COc1ccccc1-c1ccc(NCc2cn3c(n2)SCC3)nn1` | 5.155% |
| 45 | `N#CCCCn1nnc(C2(NC(=O)c3ccccc3)CCCC2)n1` | 1.149% |
| 46 | `CCCn1c(C)c(CC(=O)N[C@H](C)C(=O)OC)c2c1CC(C)(C)CC2=O` | 6.726% |
| 47 | `COc1ccc(C)cc1CC(=O)N1CC[C@@]2(CCCO2)[C@@H](O)C1` | 3.297% |
| 48 | `CN1CCC2(CCN(CC3CCOCC3)CC2)C1=O` | 3.226% |
| 49 | `O=C1COC2(CCN(Cc3cccnc3)CC2)CN1c1ccccc1` | 7.407% |
| 50 | `CC(C)(C)c1coc([C@@H]2COCCN2Cc2ccccn2)n1` | 0.4975% |
| 51 | `CCN(CC1CCOC1)C(=O)NCc1ccc(-n2cncn2)nc1` (centres undefined) | 5.946% |
| 52 | `Cn1ccnc1CN1CCN(Cc2noc(-c3ccccc3)n2)CC1` | 3.396% |
| 53 | `CS(=O)(=O)Nc1ccc(-n2c(CCCO)nc3ccccc32)cn1` | 0% |
| 54 | `OC(COCc1cccs1)Cn1cc(Cl)cn1` (centres undefined) | 9.845% |
| 55 | `COc1ncnc(N)c1CNCCc1ccccc1` | 9.045% |
| 56 | `CCOC(=O)N1CCC(NCC2CCN(c3cnn(C)c(=O)c3)C2)CC1` (centres undefined) | 3.093% |
| 57 | `CCc1noc(CC)c1CC(=O)N1CCC(C(=O)NC(C)C)CC1` | -3.59% |
| 58 | `O=C1CC[C@H]2CN(Cc3cccc(F)c3)CC[C@H]2N1CCc1c[nH]cn1` | 8.163% |
| 59 | `Cc1noc(C(C)N2CCN(c3ncnc4ccccc34)CC2)n1` (centres undefined) | 6.122% |
| 60 | `CC(O)CN1CCC(CNCc2cccc(Cl)c2)CC1` (centres undefined) | -0.8721% |
| 61 | `CC(C)Cn1cc(NC(=O)N2CCOC(c3ccccc3)C2)cn1` (centres undefined) | 0.5236% |
| 62 | `CCC(=O)N1CCN(C(=O)CCn2cccn2)CC1` | 1.916% |
| 63 | `CN(Cc1ccc(Cl)s1)C(=O)CN(C)C1CCCc2ccccc21` (centres undefined) | 9.244% |
| 64 | `Cc1nnc(CN(Cc2ccc(Cl)c(Cl)c2)C2CC2)o1` | 1.734% |
| 65 | `CC(=O)N1CCC(Oc2ccc(C#N)cc2)CC1` | -0.9804% |
| 66 | `Cc1noc([C@H]2CC[C@@H]3[C@@H](CCN3S(=O)(=O)C3CC3)O2)n1` | -2.439% |

Once more, the final 8:

{"smiles": "Cc1noc(C(C)N2CCN(c3ncnc4ccccc34)CC2)n1", "stereo": "centres undefined", "Percent Effect": 6.122}
{"smiles": "CC(O)CN1CCC(CNCc2cccc(Cl)c2)CC1", "stereo": "centres undefined", "Percent Effect": -0.8721}
{"smiles": "CC(C)Cn1cc(NC(=O)N2CCOC(c3ccccc3)C2)cn1", "stereo": "centres undefined", "Percent Effect": 0.5236}
{"smiles": "CCC(=O)N1CCN(C(=O)CCn2cccn2)CC1", "Percent Effect": 1.916}
{"smiles": "CN(Cc1ccc(Cl)s1)C(=O)CN(C)C1CCCc2ccccc21", "stereo": "centres undefined", "Percent Effect": 9.244}
{"smiles": "Cc1nnc(CN(Cc2ccc(Cl)c(Cl)c2)C2CC2)o1", "Percent Effect": 1.734}
{"smiles": "CC(=O)N1CCC(Oc2ccc(C#N)cc2)CC1", "Percent Effect": -0.9804}
{"smiles": "Cc1noc([C@H]2CC[C@@H]3[C@@H](CCN3S(=O)(=O)C3CC3)O2)n1", "Percent Effect": -2.439}

The values are deposited in ChEMBL (CHEMBL3988442, “University of Dundee, Small-Polar-MMV Screening Library” (2021)).